PubChem BioAssay AID1347076 (National Center for Advancing Translational Sciences (NCATS), 2019)
Screen size: about 400,000 compounds; about 13,000 (3.2%) were called active. The shares of active, inactive and inconclusive entries below differ from those in the screen. Calls follow the shape of the dose curve; as a rule, active = well fitted cell-killing curve with a large enough effect; inconclusive = small, poorly fitted or top-dose-only effect, or effect the other way; inactive = flat fitted curve, though single readings scatter. Potencies of inconclusive entries are doubtful fits and often do not repeat.

Experiment: qHTS assay for MDR1-selective chemotherapeutics: Primary screen using the drug-selected MDR subline cells KB-V1; also: nearly all actives have a fitted effect of over 60% in size
Conditions: KB-V1 MDR cells viability, CellTiter-Glo, 72 h; activity change, negative = cytotoxicity: at 46.1 µM (top of the series)
In short: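 Cells of the MDR subline KB-V1 are plated, dosed with compound at multiple concentrations, and incubated 72 h at 37 degrees C; CellTiter-Glo is then added and luminescence read after 10 min.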
% is scaled to controls: 0 for no effect and ±100 for the full control effect; potency is read from the fitted curve at half-maximal effect.

Compound	Potency	activity change, negative = cytotoxicity
CC1(C(=O)NCc2cccc(Cl)c2)Cc2c(-c3ccc(C(N)=O)cc3)ccnc2O1 (centres undefined)	inconclusive: 29.1 µM [cytotoxic, single point]	
O=C(COC(=O)c1cccc(OC(F)F)c1)Nc1ncccn1	inactive	
O=C(/C=C/c1ccco1)Nc1nnc(-c2ccco2)s1	inconclusive: 5.8 µM [cytotoxic, full curve, poor fit]	
CN(Cc1c(C(=O)N/N=C/c2cc(F)ccc2F)nnn1-c1nonc1N)C1CCCCC1	inactive	
CCn1c(SCC(=O)N/N=C/c2c[nH]c3ccccc23)nnc1-c1ccc(Cl)cc1	inactive	
O=C1CSc2ccc(S(=O)(=O)CCC(=O)NC3CCCCC3)cc2N1	inconclusive: 13 µM [rising, partial curve, poor fit]	
COc1ccc(C(=O)c2ccc(N3CCOCC3)c([N+](=O)[O-])c2)cc1	inconclusive: 18.4 µM [cytotoxic, single point]	
O=C1NC[C@@H](c2ccccc2)OC(=O)[C@@H](Cc2ccc(F)cc2)CC/C=C/C[C@H]1CC(=O)N(CCO)Cc1ccccc1		inconclusive: -15.5%
O=C(NC1CC1)c1ccc(CN(c2ccccc2)S(=O)(=O)c2ccccc2)cc1	inconclusive: 5.8 µM [cytotoxic, partial curve]	
O=C1OC(OC2CCCCC2)(c2ccccc2)c2ccccc21 (centres undefined)	inconclusive: 32.6 µM [cytotoxic, partial curve, poor fit]	
COc1ccc(CC(=O)NC(C)c2nnc(SCCC(=O)Nc3ccccc3)n2C)cc1 (centres undefined)	inconclusive: 29.1 µM [rising, single point]	
CCc1ccc(Nc2nn3c(=O)c4cc5c(cc4nc3s2)OCO5)cc1	inconclusive: 2.31 µM [rising, partial curve, poor fit]	
COC(=O)c1cc2oc3ccccc3c2n1Cc1nc(-c2cccc(Cl)c2)oc1C	inconclusive: 2.91 µM [cytotoxic, full curve, poor fit]	
CCc1nnc(NS(=O)(=O)c2ccc(NC(=S)NC(=O)/C=C/c3ccccc3)cc2)s1	inconclusive: 23.1 µM [rising, partial curve, poor fit]	
CCn1c(CS(=O)Cc2ccc(Cl)cc2Cl)nnc1SCc1c(Cl)cccc1Cl (centres undefined)	inconclusive: 14.6 µM [cytotoxic, partial curve, poor fit]	
CCN(CC)c1ccc(C2Nc3cccc4cccc(c34)N2)c(O)c1	inconclusive: 23.1 µM [cytotoxic, single point]	
Clc1ccc(C2=NNC(=NCc3ccc4c(c3)OCO4)SC2)cc1	active: 20.6 µM	
Cc1ccc(-n2nc(C)c3c(C)cc(=O)[nH]c32)cc1	inconclusive: 20.6 µM [cytotoxic, single point]	
NC(=O)CC(NC(=O)Cc1cccc2ccccc12)c1ccc(NC2CCCC2)c([N+](=O)[O-])c1 (centres undefined)	inactive	
CCOc1cc(C)c(C(C)C)cc1S(=O)(=O)N1CCOCC1	inconclusive: 16.4 µM [cytotoxic, partial curve, poor fit]	
COC(=O)c1ccc2nc(-c3ccc(F)cc3)c(Cc3cccc(F)c3)n2c1	inconclusive: 20.6 µM [cytotoxic, single point]	
CCOC(=O)N1CCN(S(=O)(=O)c2ccc(F)c(C(=O)Nc3cccc(Cl)c3C)c2)CC1	active: 3.26 µM	

A different layout for some results above:
Compound,Potency,"activity change, negative = cytotoxicity"
O=C1OC(OC2CCCCC2)(c2ccccc2)c2ccccc21 (centres undefined),"inconclusive: 32.6 µM [cytotoxic, partial curve, poor fit]",
COc1ccc(CC(=O)NC(C)c2nnc(SCCC(=O)Nc3ccccc3)n2C)cc1 (centres undefined),"inconclusive: 29.1 µM [rising, single point]",
CCc1ccc(Nc2nn3c(=O)c4cc5c(cc4nc3s2)OCO5)cc1,"inconclusive: 2.31 µM [rising, partial curve, poor fit]",
COC(=O)c1cc2oc3ccccc3c2n1Cc1nc(-c2cccc(Cl)c2)oc1C,"inconclusive: 2.91 µM [cytotoxic, full curve, poor fit]",
CCc1nnc(NS(=O)(=O)c2ccc(NC(=S)NC(=O)/C=C/c3ccccc3)cc2)s1,"inconclusive: 23.1 µM [rising, partial curve, poor fit]",
CCn1c(CS(=O)Cc2ccc(Cl)cc2Cl)nnc1SCc1c(Cl)cccc1Cl (centres undefined),"inconclusive: 14.6 µM [cytotoxic, partial curve, poor fit]",
CCN(CC)c1ccc(C2Nc3cccc4cccc(c34)N2)c(O)c1,"inconclusive: 23.1 µM [cytotoxic, single point]",
Clc1ccc(C2=NNC(=NCc3ccc4c(c3)OCO4)SC2)cc1,active: 20.6 µM,

Further results follow:

Compound	Potency	activity change, negative = cytotoxicity
CC(C)OP(=O)(OC(C)C)C(Nc1ccccc1)c1cccc2c1OCO2 (centres undefined)	inconclusive: 18.4 µM [cytotoxic, single point]	
COc1cc(/C=C\C(=O)OCn2nnc3ccccc3c2=O)cc(OC)c1OC		inconclusive: -8.73%
COc1ccc(N(C)S(=O)(=O)c2ccc3c(c2)CCN3C(=O)C2CC2)c(OC)c1	inconclusive: 23.1 µM [cytotoxic, single point]	
CC(=O)N1CCN(S(=O)(=O)c2c(F)cc(F)c(Cl)c2F)CC1	inconclusive: 20.6 µM [cytotoxic, partial curve, poor fit]	
CC(C)(C)c1ccc(C(O)c2ncc(-c3cccc(F)c3)[nH]2)cc1 (centres undefined)	inactive	
Cc1ccc(S(=O)(=O)O)c(C)c1N1CCCC1=O		inconclusive: 30.8%
COc1ccc(OCCN2CCC(C(=O)NC(c3ccc(F)cc3)c3ncccc3C)CC2)cc1 (centres undefined)	inactive	
CC(=O)Nc1ccc(C2NC(=S)N(c3ccccc3C(F)(F)F)C(C)=C2C(=O)N2CCOCC2)cc1 (centres undefined)		inconclusive: 35.3%
C/C(=N\NC(=O)C(C)Oc1ccc([N+](=O)[O-])cc1)c1ccccn1 (centres undefined)	active: 5.17 µM	
CCCCN(CCCC)c1ccc(Cn2ccc3ccccc32)cc1	inconclusive: 29.1 µM [cytotoxic, single point]	
CCOC(=O)c1ccc(NC(=O)c2ccc3c(c2)c(C)c(C)n3Cc2ccc(F)cc2)cc1	inactive	
Cc1cccc(C)c1OCc1nnc(SCC(=O)NCc2ccccc2)o1	inconclusive: 20.6 µM [cytotoxic, single point]	
CC(C)NC(=O)c1ccc2c(=O)n(CC3CCCO3)c(=S)[nH]c2c1 (centres undefined)	inactive	
CN(C)CC(c1ccccc1)c1ccccc1	inactive	
O=C(NCc1ccncc1)c1cc(-c2ccc(Cl)cc2)oc1C(F)(F)F	inconclusive: 2.59 µM [cytotoxic, full curve]	
CCOC(=O)c1ccc(NC(=O)C2CC(=O)N(c3ccc4c(c3)OCCO4)C2)cc1 (centres undefined)	inactive	
Cc1ccc(NS(=O)(=O)c2ccc(-n3cccn3)cc2)c(C)c1	inactive	
COc1ccc(OCCCC(=O)Nc2nc(-c3ccccn3)cs2)cc1	inconclusive: 0.92 µM [cytotoxic, full curve]	
CC(O)COc1ccc(/C(=N/O)c2ccccc2)cc1 (centres undefined)	inactive	
CCOc1ccc(N2C(=O)CC(NCCNc3ccc([N+](=O)[O-])cn3)C2=O)cc1 (centres undefined)	inconclusive: 13 µM [rising, partial curve]	
O=C(CN1CCOCC1)Nc1ccc(N2CCN(c3ccccc3)CC2)c(F)c1	inconclusive: 10.3 µM [cytotoxic, partial curve]	
COc1cccc(CSc2nc3ccccc3[nH]2)c1	inactive	
